No constants are given. Whether binding was seen depends on the method and setting. In cells and extracts the contact can be indirect. Some entries that bind do so weakly or less than the wild type.
Target: GST-RhoA (UniProt P61586)
Experiment: pull-down; GST-RhoA beads as bait; lysates of tumor tissues or of transfected COS-7 cells; bound (active) DAAM1 immunoblotted with anti-DAAM1 antibody; only the target purified

Sequences of proteins named here, by UniProt entry; tags and fusion partners are left off.
UniProt P61586: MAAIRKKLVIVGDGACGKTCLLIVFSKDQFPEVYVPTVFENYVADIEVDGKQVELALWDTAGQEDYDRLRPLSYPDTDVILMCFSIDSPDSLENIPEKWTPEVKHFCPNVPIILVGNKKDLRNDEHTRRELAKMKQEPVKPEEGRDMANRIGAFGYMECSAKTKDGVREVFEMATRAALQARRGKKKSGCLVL
UniProt Q9Y4D1: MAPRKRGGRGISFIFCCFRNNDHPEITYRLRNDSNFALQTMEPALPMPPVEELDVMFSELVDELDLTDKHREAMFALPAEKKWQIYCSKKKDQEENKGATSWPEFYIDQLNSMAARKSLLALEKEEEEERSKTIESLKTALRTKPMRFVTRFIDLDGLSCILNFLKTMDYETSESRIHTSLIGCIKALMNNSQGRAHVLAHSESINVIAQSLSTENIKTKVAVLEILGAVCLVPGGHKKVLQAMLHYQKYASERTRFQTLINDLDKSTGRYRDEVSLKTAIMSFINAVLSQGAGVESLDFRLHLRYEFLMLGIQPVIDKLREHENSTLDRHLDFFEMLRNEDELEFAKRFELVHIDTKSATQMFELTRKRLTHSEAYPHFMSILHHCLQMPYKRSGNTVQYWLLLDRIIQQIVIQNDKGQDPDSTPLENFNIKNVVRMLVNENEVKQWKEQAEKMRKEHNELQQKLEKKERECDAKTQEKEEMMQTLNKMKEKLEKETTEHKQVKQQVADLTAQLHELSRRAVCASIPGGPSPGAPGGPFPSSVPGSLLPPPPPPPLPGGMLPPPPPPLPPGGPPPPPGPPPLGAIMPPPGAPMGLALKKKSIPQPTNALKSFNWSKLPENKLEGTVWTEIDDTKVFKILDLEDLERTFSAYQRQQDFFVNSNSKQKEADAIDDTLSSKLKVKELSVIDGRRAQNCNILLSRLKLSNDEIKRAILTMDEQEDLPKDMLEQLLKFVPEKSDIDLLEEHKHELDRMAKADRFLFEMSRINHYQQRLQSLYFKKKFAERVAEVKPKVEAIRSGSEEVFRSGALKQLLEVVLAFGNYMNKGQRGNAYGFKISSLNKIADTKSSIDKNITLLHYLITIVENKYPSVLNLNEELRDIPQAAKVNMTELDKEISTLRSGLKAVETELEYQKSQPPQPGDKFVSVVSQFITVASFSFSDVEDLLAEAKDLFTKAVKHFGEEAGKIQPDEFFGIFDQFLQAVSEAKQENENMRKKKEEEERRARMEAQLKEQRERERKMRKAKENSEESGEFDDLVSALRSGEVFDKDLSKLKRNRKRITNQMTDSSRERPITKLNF

binding: binds
Substance: Dishevelled-associated activator of morphogenesis 1 (DAAM1) (from UniProt Q9Y4D1 1-1078)

— paper PMC6417246
